This assay concerns the target EphA2 extracellular domain (ECD) (human) (UniProt P29317). Briefly: SEC; IgG:EphA2 1:2.5 molar (DFF F1:EphA2 1:5), on ice 30 min, PBS pH 7.0, Superose 6 Increase 10/300 GL; legend: 200 nM IgG or EfnA1-Fc, 100 nM DFF, 500 nM EphA2; both purified. For orientation: In gel filtration, larger molecules generally elute earlier.

Protein sequences, listed by entry. Tags and fused reporters are not part of them. Residues count along the entry.
UniProt P29317, residues 24-537: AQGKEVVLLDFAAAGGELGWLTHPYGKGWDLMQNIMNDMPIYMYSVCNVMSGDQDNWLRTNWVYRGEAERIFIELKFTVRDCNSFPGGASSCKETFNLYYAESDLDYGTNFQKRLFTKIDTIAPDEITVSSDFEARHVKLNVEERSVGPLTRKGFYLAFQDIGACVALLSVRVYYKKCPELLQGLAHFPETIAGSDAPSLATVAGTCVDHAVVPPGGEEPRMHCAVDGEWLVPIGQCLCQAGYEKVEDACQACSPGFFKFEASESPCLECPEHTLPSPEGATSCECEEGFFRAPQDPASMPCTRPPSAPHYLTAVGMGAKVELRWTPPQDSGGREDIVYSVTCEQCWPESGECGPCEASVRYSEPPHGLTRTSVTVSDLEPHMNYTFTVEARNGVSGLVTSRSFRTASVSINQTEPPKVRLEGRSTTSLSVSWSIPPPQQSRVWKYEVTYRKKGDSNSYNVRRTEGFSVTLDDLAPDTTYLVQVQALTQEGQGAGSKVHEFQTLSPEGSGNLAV
UniProt P20827, residues 19-182: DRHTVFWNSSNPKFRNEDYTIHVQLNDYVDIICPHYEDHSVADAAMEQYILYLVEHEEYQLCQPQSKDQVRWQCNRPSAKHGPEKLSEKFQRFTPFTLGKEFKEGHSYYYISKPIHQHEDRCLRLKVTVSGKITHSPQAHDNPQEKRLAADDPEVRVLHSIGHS

These are yes or no findings as the source states them, for the method shown. Some binding calls cover weakened binding; strength is not graded here.

With “EfnA1-Fc (from UniProt P20827 19-182) (Fc fusion)”, the binding result is given as “binds”.

(Values after PMC12102760.)
